Data from PubChem BioAssay AID504847 (National Center for Advancing Translational Sciences (NCATS), 2011).
“And” between values parts separate entries of the source, which are not always exact repeats. Identical values can stand only once. Out of some 400,000 compounds screened, about 3,700 (0.93%) were called active. Inconclusive means that the source gave no clear call. Such entries were picked first, then a sample of the others. Calls follow the shape of the dose curve; as a rule, active = well fitted inhibition curve with a large enough effect; inconclusive = small, poorly fitted or top-dose-only effect, or another doubt; inactive = no such curve, though single readings can be large or run the other way. Potencies beside an inconclusive call are fits to weak or partial responses and may not hold up. Some compounds were tested as several samples or in several runs, with calls that do not always agree.

Amino acid sequences for entries named in this document (tags omitted). A change or cut given only in a name is not applied to a line headed by its entry.
UniProt P11473: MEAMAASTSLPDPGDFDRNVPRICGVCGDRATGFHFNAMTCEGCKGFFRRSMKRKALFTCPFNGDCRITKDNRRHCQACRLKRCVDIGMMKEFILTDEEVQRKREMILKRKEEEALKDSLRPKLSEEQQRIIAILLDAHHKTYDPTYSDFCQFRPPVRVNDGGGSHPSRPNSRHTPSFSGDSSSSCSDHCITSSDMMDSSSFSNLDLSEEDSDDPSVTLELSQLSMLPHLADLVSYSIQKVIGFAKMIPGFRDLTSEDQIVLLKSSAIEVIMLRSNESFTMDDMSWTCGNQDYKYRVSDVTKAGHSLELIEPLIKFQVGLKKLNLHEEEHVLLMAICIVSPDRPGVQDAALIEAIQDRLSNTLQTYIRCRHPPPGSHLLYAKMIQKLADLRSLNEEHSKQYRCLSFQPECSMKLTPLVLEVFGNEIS

target: Vitamin D3 receptor (Homo sapiens) (UniProt P11473); assay: Inhibitors of the vitamin D receptor (VDR): qHTS; details: VDR-SRC2-3 peptide fluorescence polarization, 2 h; max response, negative = inhibition: stronger effect = lower value
Procedure, shortened: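 Fluorescence polarization assay measuring small-molecule disruption of VDR binding to the coregulator peptide SRC2-3. Compounds were pin-transferred (23 nl) into the reagent mix and incubated 2 h at room temperature before reading.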
% is scaled to controls: 0 for no effect and ±100 for the full control effect; potency is read from the fitted curve at half-maximal effect.

Structure (SMILES) | Potency | max response, negative = inhibition
CN1C(=O)[C@]23CC4=CC=C[C@H](O)[C@H]4N2C(=O)[C@@]1(CO)SS3 | active: 3.98 µM | –
CCOC(=O)CSCCOc1ccc(C=C2C(=O)NC(=O)NC2=O)cc1OC | inconclusive: 89.1 µM [inhibitor, single point] | –
C=CC[C@]1(O)CC[C@H]2[C@@H]3CCC4=CC(=O)CCC4=C3C=C[C@@]21C | inconclusive: 44.7 µM [inhibitor, partial curve] | –
CCOC(=S)SSC(=S)OCC | active: 50.1 µM | –
Cc1c2cnn(CC(=O)N3CCC4(CC3)OCCO4)c(=O)c2c(C)n1Cc1ccccc1 | inconclusive: 89.1 µM [inhibitor, partial curve, poor fit] | –
Cc1ccc2c(CN3CC=C(c4ccccc4)CC3)cc(=O)oc2c1C | – | inactive: -8.78%
C/C1=C\[C@@H](C)C/C=C/[C@H]2[C@@H]3O[C@]3(C)[C@@H](C)[C@H]3[C@H](Cc4c[nH]c5ccccc45)NC(=O)[C@]32C(=O)/C=C/C(=O)[C@@H]1O | inconclusive: 20 µM [inhibitor, full curve, poor fit] | –
CC(C)CCN(N=O)[C@@H](Cc1ccccc1)CN(N=O)[C@@H](Cc1ccccc1)CN(C)N=O | inconclusive: 35.5 µM [inhibitor, partial curve, poor fit] | –
COC(=O)C(O)(c1ccc(N(C)C(=O)c2cccs2)cc1)C(F)(F)F (stereo not drawn) | active: 50.1 µM | –
CN(N=O)c1ccc(O)c(O)c1 | active: 35.5 µM | –
COP(=O)(OC)c1nc(-c2ccccc2)oc1NCc1ccccc1 | inconclusive: 89.1 µM [inhibitor, single point] | –
Cc1cccc2c1=NC(=O)/C(=C/c1c(O)[nH]c(=O)[nH]c1=O)C=2 | inconclusive: 56.2 µM [inhibitor, partial curve, poor fit] | –
CCCC1COC(Cn2cncn2)(c2ccc(Cl)cc2Cl)O1 (stereo not drawn) | active: 50.1 µM | –
CCOP(=O)(OCC)C(Cc1ccccc1)NC(C)=O (stereo not drawn) | – | inactive: -1.01%
O=c1[nH]c(CN2CC=C(c3ccccc3)CC2)nc2scc(-c3ccccc3)c12 | – | inactive: 11.5%
CCC(C)C(=O)c1c(O)c(C)c2oc3c(C)c(O)c(C(=O)C(C)CC)c(O)c3c2c1O (stereo not drawn) | – | inactive: -14.7%
CN1C(=O)C(=Cc2ccc(Sc3ccccc3)o2)C(=O)N(C)C1=O | inconclusive: 79.4 µM [inhibitor, single point] | –
C=CCn1c(O)c(C(CC)=NCc2cc(OC)cc(OC)c2)c(=O)[nH]c1=O | – | inactive: -5.26%
CCOC(=O)c1ccc(N=Cc2c(O)n(-c3ccc(OC)cc3)c(=S)[nH]c2=O)cc1 | – | inactive: 30.4%
CCC1(CC)C(=O)N(Cc2ccccc2)C(=O)N(Cc2ccccc2)C1=O | – | inactive: 17.6%

Structure (SMILES) | Potency | max response, negative = inhibition
Cc1ccc(OP2(=O)Nc3cc(C)c(C)cc3S2)cc1 (stereo not drawn) | active: 7.94 µM | –
Cc1[nH]c2ccc(OCc3ccccc3)cc2c1CCN | – | inactive: -4.53%
Cc1nn(-c2ccccc2)c2c1C(c1ccc(F)cc1F)C(C#N)=C(N)O2 (stereo not drawn) | inconclusive: 79.4 µM [inhibitor, single point] | –
COc1ccc(C(=O)C2CCCN(Cc3ccon3)C2)c(OC)c1 (stereo not drawn) | – | inactive: -4.76%
COc1cc(/C=C(/C)[N+](=O)[O-])ccc1OCc1ccccc1Cl | active: 8.91 µM | –
O=C1C=CC(=O)c2c(O)cccc21 | active: 31.6 µM and active: 39.8 µM | –
CN(C(=O)Cc1ccc(Cl)c(Cl)c1)[C@H](CN1CCCC1)c1ccccc1 | inconclusive: 89.1 µM [inhibitor, single point] | –
COC[C@H]1OC(=O)c2coc3c2[C@@]1(C)C1=C(C3=O)[C@@H]2CCC(=O)[C@@]2(C)C[C@H]1OC(C)=O | active: 50.1 µM and active: 70.8 µM | –
CNNC | inconclusive: 50.1 µM [inhibitor, partial curve] | –
COC(=O)C1=C(c2ccc(-c3ccccc3)c(F)c2)C[C@@H]2CC[C@H]1N2C(=O)N1CCCC1 | inconclusive: 8.91 µM [inhibitor, partial curve, poor fit] | –
CC[C@@H]1/C=C/C=C/C[C@H](C)[C@@H](O)[C@](C)(O)C(=O)[C@H](C)[C@@H](O)[C@H](C)C(=O)[C@H](C)[C@@H](O)[C@H](C)/C=C/C(=O)O[C@H]2[C@@H](C)[C@@H](CC1)O[C@@]1(CC[C@@H](C)[C@@H](C[C@H](C)O)O1)[C@@H]2C | inconclusive: 56.2 µM [inhibitor, partial curve] | –
CCOC(=O)c1c(/N=C/c2c(O)n(-c3ccccc3F)c(=S)[nH]c2=O)sc2c1CCCC2 | inconclusive: 44.7 µM [inhibitor, partial curve, poor fit] | –
COc1c2c(c(CC=C(C)C)c3oc(=O)c(-c4ccc(O)cc4)c(O)c13)OC(C)(C)C=C2 | inconclusive: 39.8 µM [inhibitor, partial curve] | –
OC[C@H]1O[C@@H](n2cnc3cc(Cl)c(Cl)cc32)[C@H](O)[C@H]1O | inconclusive: 89.1 µM [inhibitor, single point] | –
CNCCc1ccc(O)c(O)c1 | inconclusive: 89.1 µM [inhibitor, single point] | –
O=C(O)c1c(C(=O)O)c(-c2ccc(Br)cc2)n2c1CSC2 | inconclusive: 100 µM [inhibitor, single point] | –
COC(=O)OCC12CCC(O1)C1(C)C(=O)OCC21 (stereo not drawn) | inconclusive: 50.1 µM [inhibitor, partial curve, poor fit] | –
Cc1ccc(-n2c(O)c(C=NCc3ccco3)c(=O)[nH]c2=S)cc1C | inconclusive: 89.1 µM [inhibitor, single point] | –
CCOC(=O)c1c(-n2c(C)cc(C=C3C(=O)NC(=S)NC3=O)c2C)sc2c1CCCC2 | inconclusive: 3.16 µM [inhibitor, full curve, poor fit] | –
COc1cccc(N2C(=O)/C(=C/c3ccc(C)o3)C(=O)NC2=S)c1 | inconclusive: 39.8 µM [inhibitor, partial curve, poor fit] | –
O=C(c1ccc2nc(-c3ccco3)c(-c3ccco3)nc2c1)N1CCC2(CC1)OCCO2 | inconclusive: 89.1 µM [inhibitor, single point] | –

Structure (SMILES) | Potency | max response, negative = inhibition
C=CCN1C(=O)NC(=O)/C(=C/C=C/c2ccccc2)C1=O | inconclusive: 70.8 µM [inhibitor, partial curve] | –
O=C(NP(=O)(N1CC1)N1CC1)c1cc(I)ccc1I | – | inactive: -11.6%
CN1CCN(c2ccc(N)cc2Cl)CC1 | inconclusive: 17.8 µM [inhibitor, partial curve, poor fit] | –
C[n+]1c2cc(N)ccc2cc2ccc(N)cc21 | active: 25.1 µM | –
COc1ccc(/C=C2/C(=O)NC(=O)N(c3ccc(C)c(C)c3)C2=O)cc1CN1C(=O)c2ccccc2C1=O | active: 50.1 µM | –
O=C1NC(=O)N(c2ccccc2)C(=O)/C1=C/c1ccc(Sc2ccccc2)o1 | inconclusive: 15.8 µM [inhibitor, full curve, poor fit] | –
CN(C)C(=Nc1ccccc1)P(=S)(N(C)C)N(C)C | inconclusive: 100 µM [inhibitor, single point] | –
CCCCn1c(O)c(C(CC)=Nc2ccc(OCC)cc2)c(=O)[nH]c1=O | – | inactive: -7.46%
CN1C[C@H](C(=O)N[C@]2(C)O[C@@]3(O)[C@@H]4CCCN4C(=O)[C@H](Cc4ccccc4)N3C2=O)CC2c3cccc4[nH]cc(c34)C[C@H]21 (stereo partly drawn) | inconclusive: 44.7 µM [inhibitor, partial curve, poor fit] | –
CC(=O)[C@@H]1CC[C@H]2[C@@H]3CC[C@@H]4CC(=O)CC[C@]4(C)[C@H]3CC[C@]12C | active: 50.1 µM | –
COC(=O)c1nc(-c2ccc3c(n2)C(=O)C(N)=C(OC)C3=O)c(N)c(-c2ccc(OC)c(OC)c2O)c1C | active: 10 µM | –
CC[C@]1(O)CC(O[C@@H]2CC(N(C)C)C(O)C(C)O2)c2c(cc3c(c2O)C(=O)c2c(O)cccc2C3=O)C1C(=O)OC (stereo partly drawn) | active: 31.6 µM | –
CCn1nc(/C=C/c2ccccc2)nc2c(=O)n(C)c(=O)nc1-2 | inconclusive: 56.2 µM [inhibitor, partial curve, poor fit] | –
COc1ccc(N2C(=O)/C(=C/c3ccco3)C(=O)NC2=S)cc1 | inconclusive: 79.4 µM [inhibitor, partial curve] | –
CCOc1ccc(N2C(=O)/C(=C/c3ccco3)C(=O)NC2=S)cc1 | active: 79.4 µM | –
CN[C@@H]1C[C@@]2(C)O[C@@H]([C@@H]1OC)n1c3ccccc3c3c4c(c5c6ccccc6n2c5c31)C(=O)NC4 | – | inactive: -0.716%
C[C@]12CC[C@H]3[C@@H](CC[C@@]45O[C@@H]4C(=O)C(C#N)C[C@]35C)[C@@H]1CC[C@@H]2O (stereo partly drawn) | inconclusive: 39.8 µM [inhibitor, partial curve] | –
Oc1cccc[c]1[Hg][Cl] | active: 5.01 µM | –
CC1=C2C(=CO[C@H](C)[C@H]2C)C(=O)C(C(=O)O)=C1O | inconclusive: 89.1 µM [inhibitor, single point] | –
O=C(O)COc1ccccc1/C=C1\C(=O)NC(=O)N(CCC2=CCCCC2)C1=O | inconclusive: 39.8 µM [inhibitor, partial curve, poor fit] | –
C[C@@H]1C[C@H](C)C[C@H](C)[C@@H](O)CC(=O)O[C@H]([C@H]2CCC[C@H]2C(=O)O)C/C=C/C=C(/C#N)[C@H](O)[C@@H](C)C1 | inconclusive: 79.4 µM [inhibitor, single point] | –
